Results taken from article PMC12845422, “Characterization of a Novel Family of Contilisant + Belinostat Multitarget Small Molecules in Glioblastoma” (Pharmaceuticals, 2025).

System: GNS166 cells
Test: Proteomic profiling
Assay type: cell-based
Conditions: 5 µM, p-value < 0.05

O=C(/C=C/c1cccc(S(=O)(=O)n2ccc3cc(OCCCN4CCCCC4)ccc32)c1)NO [MTP150]
downregulated proteins (proteomics): 629
upregulated proteins (proteomics): 572
